Results deposited as PubChem BioAssay AID720710 (VTT Finland, 2013)
Purpose: 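Knock-downs that leave cyclin E-high cells sensitive to replication stress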 (primary screen). Cell system: human U-2 OS bone cancer cells, parental and a cyclin E (CCNE1) overexpressing line. Reagent: single siRNA against human genes, 1 µM siRNA in the printed spot mix. Timing: 67 h. Treatment: half the arrays: hydroxyurea 2 mM for 16 h, then 3 h recovery; other arrays untreated. Read-out: 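EdU click signal imaged per DAPI-stained nucleus at 67 h; each spot divided by its subgrid median, then z-scored relative to non-targeting control spots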. Reading the numbers: EdU z-score, cyclin E line, hydroxyurea and EdU z-score, parental, hydroxyurea and EdU z-score, cyclin E line, untreated and EdU z-score, parental, untreated: higher = more DNA synthesis than non-targeting controls.
The deposit covers about 1,380 reagents; below is an unselected part. 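One array per condition without replicates; hydroxyurea arrays received 2 mM for 16 h plus 3 h recovery.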 Reagents against one gene are numbered here.

| Gene | reagent no. | EdU z-score, cyclin E line, hydroxyurea | EdU z-score, parental, hydroxyurea | EdU z-score, cyclin E line, untreated | EdU z-score, parental, untreated |
| --- | --- | --- | --- | --- | --- |
| SMC3 | 1 | 0.485 | -3.45 | -0.717 | -1.22 |
| SMC3 | 2 | 0.741 | 1.4 | -0.612 | 0.472 |
| RPA2 | 1 | 0.00622 | -0.104 | -5.75 | -1.89 |
| RPA2 | 2 | 0.174 | 3.01 | -2.96 | -1.54 |
| SESN3 | 1 | -1.6 | -1.43 | -2.12 | -1.52 |
| SESN3 | 2 | 1.61 | 0.624 | 0.213 | -0.963 |
| SSBP1 | 1 | -0.449 | -0.157 | -1.61 | 0.211 |
| SSBP1 | 2 | -0.311 | 0.233 | 0.48 | 0.289 |
| POLK | 1 | 0.974 | -2.15 | -2.6 | -0.194 |
| POLK | 2 | 2.06 | -1.32 | -0.254 | 0.181 |
| POLE3 | 1 | 0.221 | -2.63 | 0.0431 | -2.18 |
| POLE3 | 2 | 0.743 | 3.19 | 2.69 | 0.954 |
| SOD1 | 1 | -0.17 | -2.72 | -1.81 | -0.58 |
| SOD1 | 2 | 2.42 | 0.276 | 0.844 | 0.813 |
| LOC729505 | 1 | 1.11 | 0.161 | -2.12 | -0.381 |
| LOC729505 | 2 | 1.75 | 0.814 | -0.232 | 0.0197 |
| SMARCE1 | 1 | -0.5 | 0.755 | -0.661 | -1.21 |
| SMARCE1 | 2 | 0.88 | 1.26 | -0.442 | -0.0477 |
| UVRAG | 1 | 0.6 | -0.185 | -1.1 | -2.37 |
| UVRAG | 2 | 1.25 | 1.17 | -0.351 | -1.23 |
| NEK11 | 1 | -1.94 | -1.47 | -2.94 | -1.87 |
| NEK11 | 2 | 1.26 | 1.47 | 0.277 | -1.15 |
| MCM10 | 1 | -0.908 | 0.658 | -2.07 | -1.37 |
| MCM10 | 2 | 1.31 | 1.18 | 0.911 | -0.083 |
| MLH3 | 1 | -0.0902 | 1.31 | -0.123 | 0.136 |
| MLH3 | 2 | 0.415 | 2.38 | 0.993 | 2.4 |
| TINF2 | 1 | -0.643 | -3.98 | -3.42 | 0.669 |
| TINF2 | 2 | 0.51 | 1.83 | 0.298 | 1.08 |
| UBAP2L | 1 | 0.32 | -0.507 | -4.04 | -0.663 |
| UBAP2L | 2 | 0.62 | 0.546 | 0.215 | 0.379 |
| REPIN1 | 1 | 0.383 | -0.966 | -0.453 | -0.0131 |
| REPIN1 | 2 | 0.587 | -0.771 | 0.363 | 0.469 |
| KMT5C | 1 | -1.02 | -1.84 | -1.26 | -1.72 |
| KMT5C | 2 | -0.801 | 2.06 | 0.559 | -1.15 |
| FANCE | 1 | -1.22 | 0.735 | -3.09 | 0.442 |
| FANCE | 2 | -0.137 | 1.52 | 0.332 | 2.3 |
| KAT6B | 1 | -0.753 | 0.226 | -1.36 | -1.29 |
| KAT6B | 2 | 0.0947 | 0.248 | -0.358 | 0.579 |
| RAD1 | 1 | 0.0397 | -5.07 | -0.045 | -0.859 |
| RAD1 | 2 | 2.04 | 2.5 | 0.139 | -0.641 |
| SUMO3 | 1 | 0.0785 | -1.92 | -0.921 | 0.144 |
| SUMO3 | 2 | 0.926 | 4.27 | -0.833 | 0.792 |
| RAD51B | 1 | 0.13 | -1.63 | -2.04 | -0.274 |
| RAD51B | 2 | 0.717 | -0.0363 | -0.629 | -0.0157 |
| CIDEA | 1 | 0.4 | 1 | -1.8 | -3.13 |
| CIDEA | 2 | 1.18 | 1.81 | -0.717 | -1.57 |
| RFC3 | 1 | -3.34 | -0.563 | -2.53 | 0.0733 |
| RFC3 | 2 | 0.235 | 0.963 | -1.21 | 0.699 |
| TYMS | 1 | 0.714 | -1.64 | -2.87 | -2.46 |
| TYMS | 2 | 1.1 | 0.802 | -0.648 | 1.3 |
| PMS2P5 | 1 | -1.2 | -1.53 | -0.32 | 0.0445 |
| PMS2P5 | 2 | -1.19 | -1.36 | -0.0585 | 0.482 |
| XPC | 1 | -2.43 | -2.21 | -1.41 | 0.318 |
| XPC | 2 | -1.87 | -0.513 | -1.4 | 0.428 |
| H4C5 | 1 | -0.217 | 0.311 | -1.61 | -1.06 |
| H4C5 | 2 | 0.182 | 0.517 | -0.246 | -0.0502 |
| RPA4 | 1 | -1.45 | 0.0451 | -0.334 | 0.776 |
| RPA4 | 2 | 1.02 | 2.36 | -0.193 | 1 |

8 consecutive reagents already listed, quoted:
| Gene | reagent no. | EdU z-score, cyclin E line, hydroxyurea | EdU z-score, parental, hydroxyurea | EdU z-score, cyclin E line, untreated | EdU z-score, parental, untreated |
| --- | --- | --- | --- | --- | --- |
| SESN3 | 2 | 1.61 | 0.624 | 0.213 | -0.963 |
| SSBP1 | 1 | -0.449 | -0.157 | -1.61 | 0.211 |
| SSBP1 | 2 | -0.311 | 0.233 | 0.48 | 0.289 |
| POLK | 1 | 0.974 | -2.15 | -2.6 | -0.194 |
| POLK | 2 | 2.06 | -1.32 | -0.254 | 0.181 |
| POLE3 | 1 | 0.221 | -2.63 | 0.0431 | -2.18 |
| POLE3 | 2 | 0.743 | 3.19 | 2.69 | 0.954 |
| SOD1 | 1 | -0.17 | -2.72 | -1.81 | -0.58 |
